Results from US20240299394A1, “TARGETED TREATMENT FOR SKIN FRAGILITY DISEASES” (University of Washington, priority 2023, published 2024).
For at least one compound, name, drawing or mass did not settle the structure.

Experiments:
Type in all cases: cell-based, human
[1] = tested on: ERK; assay: Western blotting of pERK in NHEK lysates; conditions: Dab 1 μM or Vem 10 μM alone, 24 hours in E-medium, vs DMSO
Description: (§1) NHEKs were seeded at a density of 1×10^6 cells per well of 6-well cell culture dishes in M154. Upon reaching confluence, M154 was replaced with E-medium containing vehicle control (DMSO) or inhibitors at the following concentrations: Dabrafenib (1 μM), vemurafenib (10 μM), trametinib (1 μM). After 24 hours, whole-cell lysates were generated by washing cells once in phosphate-buffered saline (PBS) followed by lysis in urea sample buffer [8 M Urea, 60 mM Tris, 1% SDS, 10% glycerol, 5% β-mercaptoethanol, 0.0005% pyronin-Y, pH 6.8] for 10 min. Lysates were homogenized using a microtip probe sonicator (Fisher Scientific).
(§2) Whole-cell lysates were loaded onto NuPAGE 12% Bis-Tris Gels (Thermo-Fisher Cat. #NP0343BOX) and separated by electrophoresis using NuPAGE MES SDS Running Buffer (Thermo-Fisher Cat. #NP0002). Proteins were transferred onto Immobilon-FL membrane (Millipore of Burlington, MA, Cat. #IPFL85R) in transfer buffer (25 mM Tris, 192 mM glycine, 20% (v/v) methanol) at 50 volts (V) for 60 minutes. Membranes were blocked in Intercept tris-buffered saline (TBS) blocking buffer (LI-COR) for 60 minutes at room temperature. Membranes were probed overnight at 4° C. with the primary antibodies diluted in Intercept TBS blocking buffer (LI-COR). […]

[2] = tested on: ERK; assay: ERK biosensor (ERK-KTR-mClover) live imaging; conditions: Dab or Vem alone, 24 h, 1.2 mM calcium
Description: For live imaging of the ERK biosensor, NHEKs were transduced with ERK-KTR-mClover (Addgene Cat. #59150). HEK293FT cells were grown in complete DMEM, then transfected with 4 μg pLenti-CMV-PuroDEST-ERK-KTR-mClover DNA plus 12 μl FuGENE 6 (Promega of Madison, WI, Cat. #E2691) in 800 μL of Opti-MEM (Thermo-Fisher Cat. #31985070), which was added to the cells and left overnight. Lentiviral supernatants were collected the next day and polybrene (Sigma Cat. #H9268) was added at a concentration of 4 μg/mL. M154 was removed from NHEKs and replaced with viral medium for 1 hour at 37° C. Cells were then washed in PBS and placed back in their normal medium and expanded in culture.
ERK-KTR-mClover-transduced cells were seeded into 35 mm glass-bottom dishes in low calcium medium (0.31 mM) and grown to confluency. […] Using Fiji (Fiji software, https://github.com/fiji/fiji), the nuclear region was encircled with the polygon tool and the “Measure” function was used to calculate the mean fluorescence intensity; after using the “Cut” function to remove the nuclear region, then remaining cytoplasmic region was encircled with the polygon tool and the “Measure” function was used to calculate the mean fluorescence intensity. The ERK activity index was calculated as the ratio of the cytoplasmic integrated fluorescence intensity (active) to the nuclear integrated fluorescence intensity.

[3] = tested on: NHEKs; assay: Immunoblot of cadherins and plakoglobin in NHEK lysates; conditions: 24 hours in E-medium, vs DMSO
Description: as §1, §2

[4] = tested on: NHEKs; assay: Immunofluorescence of plakoglobin / desmosomal protein localization; conditions: B-RAF inhibitor alone, 24 hours in E-medium
Description: Keratinocytes were grown to confluency in 35 mm glass-bottom cell culture dishes (MatTek of Ashland, MA, Cat. #P35G-1.5-20-C). For staining keratins and desmosomal proteins, cells were fixed in ice-cold 100% methanol at −20° C. for 2 minutes, allowed to dry, then re-hydrated in PBS. For staining other proteins, cells were fixed in 4% paraformaldehyde for 10 minutes at 37° C. Fixed cells were then incubated with blocking buffer [0.5% (w/v) bovine serum albumin (BSA, Sigma), 10% (w/v) normal goat serum (NGS, Sigma) in PBS] for 30 min at 37° C. Cells were then washed with PBS. Primary antibodies were diluted in 0.5% (w/v) BSA in PBS and incubated on the cells overnight at 4° C. Primary antibody dilutions were as follows: chicken anti-plakoglobin (1:1000). […]
Images were acquired on a Hamamatsu ORCA-FusionBT sCMOS camera (Hamamatsu of Hamamatsu City, Japan) using a Yokogawa W1 spinning-disk confocal (SDC) system (Yokogawa of Musashino, Tokyo, Japan) on a Nikon Ti2 microscope (Nikon of Minato City, Tokyo, Japan). Samples were illuminated using 405, 488, 561, and 640 nm laser excitation lines and fluorescence was detected using a 60×1.2 numerical aperture (NA) water objective (Nikon) with standard emission filters.

[5] = tested on: NHEK monolayers; assay: Monolayer mechanical dissociation assay, B-RAF inhibitor model of Grover disease; conditions: Dabrafenib 1 μM or vemurafenib 10 μM alone, 24 h
Description: Dispase-based mechanical dissociation assays were carried out as described (70). Keratinocytes were plated at a density of 1×10^6 cells per well of 6-well cell culture dishes. Upon reaching confluence, the cells were switched into E-medium. Vehicle control (DMSO) or chemical inhibitors were added at the following concentrations: Dabrafenib (1 μM), vemurafenib (10 μM) trametinib (1 μM), U0126 (10 μM), or PD98059 (20 μM). After 24 h, monolayers were washed with PBS and then incubated with 500 μL dispase (5 U/ml) in Hank's balanced salt solution (Stemcell Technologies of Vancouver, Canada, Cat. #07913) for 30 minutes at 37° C. Next, 4.5 mL PBS was added to the wells and all liquid plus released monolayers were transferred into 15 mL conical tubes, which were placed together in a rack and inverted 1-10 times to induce mechanical stress. Monolayer fragments were transferred back into 6-well cell culture plates and imaged with a 12-megapixel digital camera. Fragments were counted in Fiji.

[6] = tested on: organotypic epidermis of NHEKs; assay: Organotypic epidermis treated with B-RAF inhibitors (H&E, immunostaining); conditions: Dab or Vem alone, 48 hours
Description: Inhibitors were used at the following concentrations: Dabrafenib (1 μM), vemurafenib (10 μM), trametinib (1 μM).
Paraffin-embedded formalin-fixed tissue cross-sections on glass slides were incubated at 65° C. for 2 hours. Sections were prepared for staining by immersion in 3 baths of xylenes (Fisher) for 5 minutes each, followed by 3 baths of 95% ethanol for 5 minutes each, then 70% ethanol for 5 minutes, and finally 3 baths of PBS for 5 minutes each.

Structure (SMILES): CCCS(=O)(=O)Nc1ccc(F)c(C(=O)c2c[nH]c3ncc(-c4ccc(Cl)cc4)cc23)c1F [vemurafenib]
- pERK by Western blotting [1]: sufficient to increase the active phosphorylated form of ERK (pERK)
- ERK activity (biosensor) [2]: induced ERK activation
- protein levels of classical cadherins, desmosomal cadherins (DSG1, DSG2, DSG3) and plakoglobin [3]: did not appreciably alter
- localization of desmosomal proteins [4]: induced mislocalization of desmosomal proteins
- number of fragments upon mechanical stress [5]: an increase in the number of fragments
- number of fragments upon mechanical stress ([5]; listed as Vein): readily fragmented
- localization of plakoglobin to cell-cell junctions [6]: reduced localization of plakoglobin to cell-cell junctions
